# Results are given in words; binding and its absence hold for the method and conditions named. For some assays here: Binding seen in cells or lysates may run through a third protein. Some results given as binding are weak or reduced against the parent protein; the word gives no strength. Sequences can lack the tags named with a protein.
# T1: MFSD1-strep (mouse major facilitator superfamily domain containing 1 protein with N-terminal Twin-Strep-tag) (mouse) (UniProt Q9DC37)
# T1 sequence: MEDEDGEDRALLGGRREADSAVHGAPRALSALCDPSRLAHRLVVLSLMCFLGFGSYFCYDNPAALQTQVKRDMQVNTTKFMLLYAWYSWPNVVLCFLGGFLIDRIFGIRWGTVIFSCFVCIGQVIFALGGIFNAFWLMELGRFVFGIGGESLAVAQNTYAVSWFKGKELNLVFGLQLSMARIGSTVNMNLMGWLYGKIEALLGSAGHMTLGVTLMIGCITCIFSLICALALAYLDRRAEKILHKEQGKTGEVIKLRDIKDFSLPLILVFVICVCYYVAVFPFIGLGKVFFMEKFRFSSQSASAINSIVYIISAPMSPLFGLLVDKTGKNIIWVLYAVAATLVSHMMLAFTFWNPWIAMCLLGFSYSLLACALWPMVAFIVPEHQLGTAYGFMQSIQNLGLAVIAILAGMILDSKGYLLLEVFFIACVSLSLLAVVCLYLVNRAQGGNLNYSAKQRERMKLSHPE
# B1: GLMP-Ct-His-GFP (mouse glycosylated lysosomal membrane protein with C-terminal TEV site, GFP and 8xHis tag) (protein, UniProt Q9JHJ3 36-404)
# chain: EETRQVSMEVISGWPNPQNLLHIRAVGSNSTLHYVWSSLGPPAVVLVATNTTQSVLSVNWSLLLSPDPAGALMVLPKSSIQFSSALVFTRLLEFDSTNASEGAQPPGKPYPPYSLAKFSWNNITNSLDLANLSADFQGRPVDDPTGAFANGSLTFKVQAFSRSGRPAQPPRLLHTADVCQLEVALVGASPRGNHSLFGLEVATLGQGPDCPSVNERNSIDDEYAPAVFQLNQLLWGSSPSGFMQWRPVAFSEEERARESALPCQASTLHSTLASSLPHSPIVQAFFGSQNNFCAFNLTFGAPTGPGYWDQYYLCWSMLLGMGFPPVDIFSPLVLGIMAVALGAPGLMFLGGGLFLLLRHRRYSEYQSIN
# modifications: N-glycosylated
# Experiments:
# [1] = biological target: T1, MFSD1-strep (mouse major facilitator superfamily domain containing 1 protein with N-terminal Twin-Strep-tag) (mouse); assay: pull-down; MFSD1-Nt-strep co-expressed with GLMP-Ct-His-GFP in Expi293F; detergent-extracted soluble fraction pulled down over Strep-Tactin beads; elution fraction blotted with antibodies against MFSD1 or GLMP; performed once
# [2] = biological target: T1, MFSD1-strep (mouse major facilitator superfamily domain containing 1 protein with N-terminal Twin-Strep-tag) (mouse); assay: SEC; co-purification from co-expressing Expi293F cells: Strep-TactinXT, then Ni-NTA, TEV cleavage, reverse Ni-NTA, then Superose 6 increase 3.2/300 in 20 mM HEPES pH 7.5, 150 mM NaCl, 0.03% DDM, 0.003% CHS; SDS-PAGE of the peak
binder,measurement,setting,value
B1,binding,[1],binds
same,binding,[2],binds
